Test results: patent US10183950B2, “Thienopyrimidine inhibitors of atypical protein kinase C” (Cancer Research Technology Limited, priority 2011, dated 2019)
Structures were worked out from names or drawings and are uncertain.

Sequences of proteins named here, by UniProt entry; tags and fusion partners are left off. Residues count along the entry.
UniProt P41743, whole entry: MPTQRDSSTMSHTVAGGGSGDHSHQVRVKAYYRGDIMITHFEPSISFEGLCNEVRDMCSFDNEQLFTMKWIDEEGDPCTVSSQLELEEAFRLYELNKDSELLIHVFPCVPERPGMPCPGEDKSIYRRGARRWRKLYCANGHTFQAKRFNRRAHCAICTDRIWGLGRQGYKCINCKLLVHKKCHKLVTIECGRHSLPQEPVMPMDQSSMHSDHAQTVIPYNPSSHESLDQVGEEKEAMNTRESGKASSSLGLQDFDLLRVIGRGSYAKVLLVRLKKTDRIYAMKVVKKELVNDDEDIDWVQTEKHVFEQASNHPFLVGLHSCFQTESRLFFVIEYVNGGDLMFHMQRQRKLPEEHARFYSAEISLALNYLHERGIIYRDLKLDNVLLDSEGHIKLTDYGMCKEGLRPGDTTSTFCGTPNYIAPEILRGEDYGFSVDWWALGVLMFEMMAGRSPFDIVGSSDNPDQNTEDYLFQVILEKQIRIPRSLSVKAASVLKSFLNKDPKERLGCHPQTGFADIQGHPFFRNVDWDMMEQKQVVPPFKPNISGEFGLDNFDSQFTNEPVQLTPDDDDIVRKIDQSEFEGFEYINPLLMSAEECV
UniProt P41743, 254-522 limits assumed: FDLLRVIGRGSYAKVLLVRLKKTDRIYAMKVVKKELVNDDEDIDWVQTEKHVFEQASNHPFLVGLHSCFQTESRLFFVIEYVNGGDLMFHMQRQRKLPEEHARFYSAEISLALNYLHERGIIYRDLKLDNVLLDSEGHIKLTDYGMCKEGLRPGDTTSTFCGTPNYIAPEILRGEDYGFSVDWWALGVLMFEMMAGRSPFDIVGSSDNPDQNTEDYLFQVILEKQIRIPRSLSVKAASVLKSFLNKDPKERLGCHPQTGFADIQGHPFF

Columns and labels:
[1] = molecular target: kinase-domain human PKCι (Homo sapiens, UniProt P41743); assay: PKCι IC50 IMAP fluorescence polarisation assay, kinase-domain enzyme; format: biochemical; details: read-out: IC50 in IMAP assay against kinase domain PKCi (Activity); kinase domain PKCi at 2 μM ATP
[2] = molecular target: full-length human PKCι (Homo sapiens, UniProt P41743); assay: PKCι IC50 IMAP fluorescence polarisation assay, full-length enzyme; details: read-out: IC50 in IMAP assay against full length PKCi; full length PKCi at 15 μM ATP

Compound: Cc1ccc(CN2CCN(c3nc(-c4ccncc4)nc4sc5c(c34)CCCC5)CC2)cc1
- IC50 [1]: 10 to 40 µM

Compound: CC(C)S(=O)(=O)c1cccc(Nc2cc(-c3nc(N[C@@H]4CCNC4)c4sccc4n3)ccn2)c1
- IC50 [2]: 1 to 10 µM
